# Results: patent publication US10519504B2, “Methods for treatment of oncological disorders using epimetabolic shifters, multidimensional intracellular molecules, or environmental influencers” (Berg LLC, priority 2009, dated 2019)
# For at least one compound, name, drawing or mass did not settle the structure.
# Legend:
# Caspase-3 = experiment: Western blot of building block components, Caspase-3; type: cell-based; conditions: Skmel-28; 5 μM and 15 μM; 12 hours and 24 hours
# Method: (§1) Skmel-28 melanoma cells were cultured in DMEM/F12 supplemented with 5% Fetal Bovine Serum (FBS) and 1× final concentration of Antibiotics. The cells were grown to 85% confluency and treated with building block components for 3, 6, 12 and 24 hours. The cells were then pelleted and a Western blot analysis was performed. The test building block components included L-Phenylylalanine, DL-Phenylylalanine, D-Phenylylalanine, L-Tyrosine, DL-Tyrosine, D-Tyrosine, 4-Hydroxy-phenylpyruvate, phenylacetate, 3-methoxy-4-hydroxymandelate (vanillylmandelate or VMA), vanillic acid, 4-hydroxy-benzoate, pyridoxine, panthenol, mevalonic acid, Acetylglycine, Acetyl-CoA, Farnesyl, and 2,3-Dimethoxy-5-methyl-p-benzoquinone.
# (§2) In the Western Blot Analysis, the cells were pelleted in cold PBS, lysed, and the protein levels were quantified using a BCA protein assay. The whole cell lysate was loaded in a 4% loading 12% running Tris-HCl gel. The proteins were then transferred to a nitrocellulose paper then blocked with a 5% milk Tris-buffered solution for 1 hour. The proteins were then exposed to primary antibodies (Bcl-2 and Caspase-3) overnight. The nitrocellulose paper was then exposed to Pico Chemilluminescent for 5 min and the protein expression was recorded. After exposure, actin was quantified using the same method. Using ImageJ the levels of protein expression were quantified. […]
# Bcl-2 = experiment: Western blot of building block components, Bcl-2; type: cell-based; conditions: Skmel-28; 5 μM and 15 μM; 12 and 24 hours
# Method: as §1, §2
structure (smiles),measurement,setting,value
O=C(O)Cc1ccccc1 [Phenylacetate],Caspase-3 expression,Caspase-3,increase in Caspase-3 expression
same,Bcl-2 expression,Bcl-2,decrease in Bcl-2 expression
